According to PubChem BioAssay AID338 (DTP/NCI, 2004):
The list shows only some results of the screen, not a fair sample: its compounds were picked by chemical class. Other doses and runs of a compound may be missing. T/C: endpoint of the treated group in % of that of the vehicle group. Some doses have a count of surviving animals in place of a T/C: the source files T/C as zero there, which appears to mark a toxic dose or a test without result, not a measured value. Some survivor counts are full or nearly so, which does not show that the dose was tolerated: survival well below the control is almost never listed, so the zero probably covers shortened survival too. Survivors were counted at the toxicity check, usually on the fifth day, unless a day is given; later deaths do not show. Schedule codes are those of the source, read here as Q, the interval in days (D) or hours (H), X, the number of doses. Some doses were run more than once; the values are given in rising order. Where survival is the endpoint, this PubChem deposit counts one and a half times the control or more as active, and values a quarter to a half above the control carry no call in these data; other NCI protocols may use other cut-offs.

System: BDF1 mice, P388 leukemia (terephthalanilide-resistant), survival T/C
Experiment: NCI In Vivo Anticancer Drug Screen. Data for tumor model P388 Leukemia resistant to A Terephthalanilide; NSC 38280 (intraperitoneal) in B6D2F1 (BDF1) mice
Settings: T/C endpoint: median survival time, schedule: Q01DX010 (ip), vehicle: saline, higher T/C = longer survival
Procedure: The antitumor activity of compounds was measured in mice bearing transplantable tumors. Survival or tumor size were measured and the results are expressed as the measurement made in the treated group (T) divided by the measurement made in the vehicle treated control group (C). The tumor model used in this assay is P388 Leukemia resistant to A Terephthalanilide; NSC 38280 (intraperitoneal) in B6D2F1 (BDF1) mice

Structure (SMILES) | T/C (dose: 8.0 mg/kg/injection) | T/C (dose: 16.0 mg/kg/injection) | survivor count (dose: 16.0 mg/kg/injection) | survivor count (dose: 32.0 mg/kg/injection) | survivor count (dose: 64.0 mg/kg/injection) | T/C (dose: 1.25 mg/kg/injection) | T/C (dose: 2.5 mg/kg/injection) | T/C (dose: 5.0 mg/kg/injection) | T/C (dose: 10.0 mg/kg/injection) | T/C (dose: 20.0 mg/kg/injection)
CN(N=O)C(=N)N[N+](=O)[O-] | 120 and 125 % of control | 135 % of control | 6 of 6 | 6 of 6 | 3 of 6 and 5 of 6 |  |  |  |  | 
NC1CCCCC1.O=P(O)(N(CCCl)CCCl)N1CC1 |  |  |  |  |  | 109 % of control | 100 and 113 % of control | 100 and 109 % of control | 122 and 136 % of control | 100 % of control
